Data taken from the supplement of paper PMC3682954.
Several values for one entry are separate records, joined by “and”; a condition that tells them apart may be missing. Equal entries are not always repeated. Structures can show the parent of a compound that is named as a salt. ± gives the standard deviation of the averaged measurements. Some of the results follow. Most values come without repeats; read them as rough.

Tested on: RAW 264.7
Experiment: HMGB1-induced TNF-alpha production relative to HMGB1-stimulated control; higher = more TNF-alpha secretion (less inhibition)
Details: stimulus: HMGB1 5 ug/ml, 18 h
[1] = compound concentration: 1 ug/ml

Structure (SMILES) | HMGB1-induced TNF-alpha production (compound concentration: 3 uM) | HMGB1-induced TNF-alpha production [1] [%]
NC(CCCP(=O)(O)O)C(=O)O (stereo not drawn) [D(-)-2-Amino-5-phosphonopentanoic acid] | 90.6% | –
C#C[C@]1(O)CC[C@H]2[C@@H]3CCc4cc(O)ccc4[C@H]3CC[C@@]21C | 92% and 100% | –
C#C[C@]1(O)CC[C@H]2[C@@H]3CCc4cc(O)ccc4[C@H]3CC[C@@]21C [Ethinylestradiol] | 100% | –
CCCCN(CCCC)CCC(O)c1cc2c(Cl)cc(Cl)cc2c2cc(C(F)(F)F)ccc12 (stereo not given) [Halofantrine hydrochloride] | 91.4% | –
Cc1occc(=O)c1O | 115% | –
CO[C@H]1O[C@H](CO)C(O[C@@H]2OC(C(=O)O)[C@@H](O[C@H]3O[C@H](COS(=O)(=O)O)C(O[C@@H]4OC(C(=O)O)[C@@H](O[C@H]5O[C@H](CO)C(O[C@@H]6OC(C(=O)O)[C@@H](O[C@H]7O[C@H](COS(=O)(=O)O)C(O[C@@H]8OC(C(=O)O)=C[C@H](O)C8OS(=O)(=O)O)[C@H](O)[C@H]7NC(C)=O)[C@H](O)[C@H]6O)[C@H](O)[C@H]5NC(C)=O)[C@H](O)[C@H]4O)[C@H](O)[C@H]3NC(C)=O)[C@H](O)[C@H]2O)[C@H](O)[C@H]1NC(C)=O (stereo not given in full) | 84.8% | –
CCOC(=O)C1=C(C)NC(C)=C(C(=O)OCC)C1c1ccccc1/C=C/C(=O)OC(C)(C)C | 100% | –
CCOC(=O)C1=C(C)NC(C)=C(C(=O)OCC)C1c1ccccc1/C=C/C(=O)OC(C)(C)C [Lacidipine] | 106 ± 19% | –
CCOc1cc(CC(=O)N[C@@H](CC(C)C)c2ccccc2N2CCCCC2)ccc1C(=O)O | 105 ± 17% | –
CCOc1cc(CC(=O)N[C@@H](CC(C)C)c2ccccc2N2CCCCC2)ccc1C(=O)O [Repaglinide] | 120% | –
COc1ncnc(NS(=O)(=O)c2ccc(N)cc2)c1OC | 105% | –
COc1ncnc(NS(=O)(=O)c2ccc(N)cc2)c1OC [Sulfadoxine] | 120 ± 25% | –
CC(=O)OCC(=O)[C@@]1(O)[C@H](C)C[C@H]2[C@@H]3CCC4=CC(=O)C=C[C@]4(C)[C@@]3(F)[C@@H](O)C[C@@]21C | 28.8% | –
CC(=O)OCC(=O)[C@@]1(O)[C@H](C)C[C@H]2[C@@H]3CCC4=CC(=O)C=C[C@]4(C)[C@@]3(F)[C@@H](O)C[C@@]21C [Dexamethasone acetate] | 23.5% | –
CC(=O)OCC(=O)[C@@]1(O)[C@H](C)C[C@H]2[C@@H]3CCC4=CC(=O)C=C[C@]4(C)[C@@]3(F)[C@@H](O)C[C@@]21C [dexamethasone 21-acetate] | – | 36.8
CC1(C)CCC[C@]2(C)[C@H]3CC(=O)O[C@]3(C)CC[C@@H]12 [(3aR)-(+)-Sclareolide] | – | 74.6
COc1c(N2C[C@@H]3CCCN[C@@H]3C2)c(F)cc2c(=O)c(C(=O)O)cn(C3CC3)c12 | 93.5% and 96% | –
COc1c(N2C[C@@H]3CCCN[C@@H]3C2)c(F)cc2c(=O)c(C(=O)O)cn(C3CC3)c12 [Moxifloxacin] | 98.7% | –
COc1ccc(C(=O)c2ccccc2)c(O)c1 | 91.9% | –
COc1ccc(C(=O)c2ccccc2)c(O)c1 [Oxybenzone] | 113% | –
COc1ccc(C(=O)CC(=O)c2ccc(C(C)(C)C)cc2)cc1 | 62.2% | –
Cc1cc(NC2CCCCC2)nc(-n2nc(C)cc2C)n1 | 96.2% | –
CC(C)CC(N)C(=O)O (racemic) [DL-Leucine] | – | 65.2
NCCSSCCN [Cystamine dihydrochloride] | 80.4% | –

Quoted at random: 3 records from the list
Structure (SMILES) | HMGB1-induced TNF-alpha production (compound concentration: 3 uM) | HMGB1-induced TNF-alpha production [1] [%]
Cc1cc(NC2CCCCC2)nc(-n2nc(C)cc2C)n1 | 96.2% | –
NC(CCCP(=O)(O)O)C(=O)O (stereo not drawn) [D(-)-2-Amino-5-phosphonopentanoic acid] | 90.6% | –
Cc1occc(=O)c1O | 115% | –

Following part:

Structure (SMILES) | HMGB1-induced TNF-alpha production (compound concentration: 3 uM) | HMGB1-induced TNF-alpha production [1] [%]
Nc1nc2c(ncn2COCCO)c(=O)[nH]1 [Acycloguanosine] | 92.6% | –
Nc1nc2c(ncn2COCCO)c(=O)[nH]1 | 91.49 ± 0.059% | –
Nc1nc2c(ncn2COCCO)c(=O)[nH]1 [Acyclovir] | 90.7 ± 2.1% | –
CCCCCN(CCCCC)C(=O)C(CCC(=O)O)NC(=O)c1ccc(Cl)c(Cl)c1 (stereo not given) [Lorglumide sodium salt] | 78.8% | –
CCCCCN(CCCCC)C(=O)C(CCC(=O)O)NC(=O)c1ccc(Cl)c(Cl)c1 (stereo not given) [Lorglumide sodium] | 109% | –
CCCCCN(CCCCC)C(=O)C(CCC(=O)O)NC(=O)c1ccc(Cl)c(Cl)c1 (stereo not given) | 85.3% | –
CCCCCN(CCCCC)C(=O)C(CCC(=O)O)NC(=O)c1ccc(Cl)c(Cl)c1 (stereo not given) [Lorglumide] | 104% | –
CC(C)NCC(O)c1ccc(O)c(O)c1 (stereo not given) | 66% | –
CC(C)NCC(O)c1ccc(O)c(O)c1 (stereo not drawn) [S(+)-Isoproterenol (+)-bitartrate] | 59% | –
COc1ccc2[nH]c([S@@+]([O-])Cc3ncc(C)c(OC)c3C)nc2c1 [Esomeprazole] | 84.9% | –
COc1ccc2[nH]c([S@@+]([O-])Cc3ncc(C)c(OC)c3C)nc2c1 [Esomeprazole magnesium dihydrate] | 78.1% | –
CC(C)(C)NC(=O)[C@@H]1C[C@@H]2CCCC[C@@H]2CN1C[C@@H](O)[C@H](Cc1ccccc1)NC(=O)[C@H](CC(N)=O)NC(=O)c1ccc2ccccc2n1 [Saquinavir mesylate] | 125% | –
CC(C)(C)NC(=O)[C@@H]1C[C@@H]2CCCC[C@@H]2CN1C[C@@H](O)[C@H](Cc1ccccc1)NC(=O)[C@H](CC(N)=O)NC(=O)c1ccc2ccccc2n1 | 104% | –
COC(=O)C1=C(C)NC(C)=C([N+](=O)[O-])C1c1ccccc1C(F)(F)F (racemic) | 77.5% | –
CC[C@H]1OC(=O)C[C@@H](O)[C@H](C)[C@@H](O[C@@H]2O[C@H](C)[C@@H](O[C@H]3C[C@@](C)(O)[C@@H](O)[C@H](C)O3)[C@H](N(C)C)[C@H]2O)[C@@H](CC=O)C[C@@H](C)C(=O)/C=C/C(C)=C/[C@@H]1CO[C@@H]1O[C@H](C)[C@@H](O)[C@@H](OC)[C@H]1OC | 98.7% | –
CC[C@H]1OC(=O)C[C@@H](O)[C@H](C)[C@@H](O[C@@H]2O[C@H](C)[C@@H](O[C@H]3C[C@@](C)(O)[C@@H](O)[C@H](C)O3)[C@H](N(C)C)[C@H]2O)[C@@H](CC=O)C[C@@H](C)C(=O)/C=C/C(C)=C/[C@@H]1CO[C@@H]1O[C@H](C)[C@@H](O)[C@@H](OC)[C@H]1OC [Tylosin] | 91.3 ± 18% | –
CC(C)ON([C@@H](C(=O)NO)C(C)C)S(=O)(=O)c1ccc(-c2ccccc2)cc1 | 97.1% | –
O=C(CCCCCCC(=O)Nc1ccccc1)NO [Vorinostat] | 42.1% | –
CCc1ccc2c(-c3cccc(Cl)c3)nc(=O)n(CC)c2n1 | 59.1% | –
COC(=O)C1=C(C)NC(C)=C(C(=O)OC2CCCN(Cc3ccccc3)C2)C1c1cccc([N+](=O)[O-])c1 (stereo not given) | 99.1% | –
C[C@]12C[C@H](O)[C@H]3[C@@H](CCC4=CC(=O)CC[C@@]43C)[C@@H]1CC[C@@H]2C(=O)CO | 64.2% | –
C[C@]12C[C@H](O)[C@H]3[C@@H](CCC4=CC(=O)CC[C@@]43C)[C@@H]1CC[C@@H]2C(=O)CO [Corticosterone] | 56.4 ± 5.4% | –
CC1(C)O[C@@H]2C[C@H]3[C@@H]4CCC5=CC(=O)C=C[C@]5(C)[C@H]4[C@@H](O)C[C@]3(C)[C@]2(C(=O)CO)O1 | 43.9% | –
COc1ccccc1N1CCN(CCN(C(=O)c2ccc(F)cc2)c2ccccn2)CC1 [p-MPPF dihydrochloride] | 117% | –

Structure (SMILES) | HMGB1-induced TNF-alpha production (compound concentration: 3 uM) | HMGB1-induced TNF-alpha production [1] [%]
c1ccc(-c2ccccn2)nc1 [2,2'-Bipyridyl] | 89.5% | –
CCN(CC)CCOc1ccc2c(c1)C(=O)c1cc(OCCN(CC)CC)ccc1-2 | 78.6% | –
Oc1ccc(Cn2cc[nH]c2=S)cc1 [1-(4-Hydroxybenzyl)imidazole-2-thiol] | 88.4% | –
CCN(CC)C(=S)SSC(=S)N(CC)CC [Disulfiram] | 70 ± 11% | –
CCN(CC)C(=S)SSC(=S)N(CC)CC | 70.1% | –
C=C[C@@]1(C)CC(=O)[C@]2(O)[C@@]3(C)[C@@H](O)CCC(C)(C)[C@@H]3[C@H](O)[C@H](OC(C)=O)[C@@]2(C)O1 | 99.5% | –
C=C[C@@]1(C)CC(=O)[C@]2(O)[C@@]3(C)[C@@H](O)CCC(C)(C)[C@@H]3[C@H](O)[C@H](OC(C)=O)[C@@]2(C)O1 [Forskolin] | 85.4% | –
CN(Cc1cnc2nc(N)nc(N)c2n1)c1ccc(C(=O)NC(CCC(=O)O)C(=O)O)cc1 (racemic) | 86.2 ± 5.4% | –
C/C(=C(\CCOP(=O)(O)O)SC(=O)c1ccccc1)N(C=O)Cc1cnc(C)nc1N [Benfotiamine] | 107% | –
C/C(=C(\CCOP(=O)(O)O)SC(=O)c1ccccc1)N(C=O)Cc1cnc(C)nc1N | 81.9% | –
Nc1ccc2cn[nH]c2c1 | 99% | –
Nc1c2c(nc3ccccc13)CCCC2 [Tacrine] | 93.2% | –
Nc1c2c(nc3ccccc13)CCCC2 | 89.1% and 108% | –
Nc1c2c(nc3ccccc13)CCCC2 [9-Amino-1,2,3,4-tetrahydroacridine hydrochloride] | 81.6% | –
NC[C@H]1CC[C@H](C(=O)Oc2ccc(CCC(=O)O)cc2)CC1 | 104% | –
Nc1ncnc2c1ncn2[C@@H]1O[C@H](COP(=O)(O)OP(=O)(O)O)[C@@H](O)[C@H]1O [Adenosine 5'-diphosphate, monosodium salt dihydrate] | – | 81.4
Nc1ncnc2c1ncn2[C@@H]1O[C@H](COP(=O)(O)OP(=O)(O)O)[C@@H](O)[C@H]1O [Adenosine-5'-diphosphate, disodium salt hydrate] | – | 81.5
O=c1cc(-c2ccccc2)oc2cc(O)cc(O)c12 [Chrysin] | – | 87.8
Cc1nc2sccn2c(=O)c1CCN1CCC(=C(c2ccccc2)c2ccc(F)cc2)CC1 [Diacylglycerol kinase inhibitor I] | 73.1% | –
CC(C)=CCC/C(C)=C/CC/C(C)=C/CO [Farnesol, mixture of isomers] | – | 79.7
COc1c(-c2ccccc2)oc2c(ccc3occc32)c1=O [Karanjin] | – | 40.8
Cc1c(C(=O)O)c(O)cc2c1C(=O)c1c(O)c([C@@H]3O[C@H](CO)[C@@H](O)[C@H](O)[C@H]3O)c(O)c(O)c1C2=O [Carminic acid] | – | 79.8
